This is one part of the list. Shown are side measurements of this screen, not its main read-out; they come without a call. The list favours compounds with an active or inconclusive main result. Potencies come from curve fits of mixed quality, noted in brackets.

This test can be described thus: qHTS Assay for Lipid Storage Modulators in Drosophila S3 Cells.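 For cell number change: cells counted by Cell Tracker Red CMTPX staining in the red channel.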 The settings on record: BODIPY lipid droplet fluorescence, 18-24 h; for cell number change: measured here: cell count max response, cells fed with added oleic acid. The gist of the method: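 Drosophila S3 cells got compounds at several concentrations plus oleic acid (400 uM solution). Laser-scanning cytometry with 488 nm excitation read lipid droplets at 500-530 nm and cells at 575-640 nm. Percent activity was relative to 20 uM Triacsin C.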
For orientation: In qHTS, concentration-response curves come from the screen itself.

Where [1] appears, read: measured here: cell number channel AC50, cells fed with added oleic acid.
Setting [2] is: measured here: lipid fluorescence (Fed channel) AC50, cells fed with added oleic acid.

Take `CCOc1ccc(N=c2oc3cc(O)ccc3cc2C(=O)NCC2CCCO2)cc1` (stereo not drawn): the cell number change worked out at 16.4%.

`C/C(=N\NC(=O)c1nn(C)c(C)c1Br)c1cccc(NC(=O)c2ccoc2C)c1`: the cell number change is 39.5%. Also, the concentration at half-maximal activity (AC50) under setting [1] is 29.1 µM [rising, single point]. The concentration at half-maximal activity (AC50) under setting [2] is 1.84 µM [rising, full curve, poor fit].

For `CCOC(=O)CCc1c(C)c2ccc(OCC)c(C)c2oc1=O`, the cell number change is -39%. Further, under setting [1], the AC50 was 3.66 µM [falling, full curve]. The concentration at half-maximal activity (AC50) under setting [2] is 6.51 µM [falling, full curve].

As for `O=C(NCc1ccccn1)c1ccc2c(=O)n3nc(Nc4ccccc4)sc3nc2c1`, the AC50 under setting [2] was 2.31 µM [falling, partial curve].

Regarding `CCOC(=O)C1/C(=N\O)CC(C)(O)C(C(=O)OCC)C1c1ccc(OC)c(OC)c1` (stereo not drawn), the cell number change came out at 2.24%.

Consider `O=C(Cn1c(=O)oc2ccccc21)N(Cc1ccccc1)C1CCS(=O)(=O)C1` (stereo not drawn), for which the cell number change was determined as 4.33%. Besides, the AC50 under setting [1] was 0.651 µM [rising, full curve].

As for `CC(C)c1ccc(NC(=O)CN2CCN(c3ccccn3)CC2)cc1`, the cell number change was -1.06%. Moreover, the AC50 under setting [2] was 4.61 µM [rising, partial curve, poor fit].

In the case of `O=C1CC(N2CCCCCC2)C(=O)N1c1ccc(F)cc1` (stereo not drawn), the cell number change was -28.9%.

With `O=C(Nc1ccc(Cl)cc1)C1CCCN(c2cnccn2)C1` (stereo not drawn), the cell number change was 14.5%. The concentration at half-maximal activity (AC50) under setting [2] was 29.1 µM [rising, single point].

For `COc1cc(Cl)c(C)cc1NC(=O)COC(=O)c1cnc(C)cn1`, the cell number change stood at 95.3%. Besides, the AC50 under setting [1] was 16.4 µM [rising, partial curve]. The concentration at half-maximal activity (AC50) under setting [2] is 6.51 µM [rising, single point].

With `Cc1cccc(OCCSc2cc(C)nc(N)n2)c1`, the cell number change is -44.2%. Moreover, under setting [1], the AC50 is 18.4 µM [falling, single point]. Besides, under setting [2], the half-maximal activity concentration (AC50) is 29.1 µM [falling, single point].

As for `CCN(CC)c1ccc(/C=N/N2C(C)CCCC2C)c(O)c1` (stereo not drawn), the cell number change came to 20.9%.

Consider `CCc1ccc(/C=N/NC(=O)c2cc(C)on2)s1`, for which the cell number change is -7.03%.

With `Cc1ccc(C(=O)OCC(=O)Nc2ncc(C(F)(F)F)cc2Cl)cc1NC(=O)c1ccco1`, the cell number change worked out at 131%. In addition, the AC50 under setting [1] is 1.84 µM [rising, full curve]. Under setting [2], the concentration at half-maximal activity (AC50) was 20.6 µM [rising, partial curve].

Turning to `CN(C)S(=O)(=O)c1ccc(NC(=O)CCNC(=O)c2ccco2)cc1`, the cell number change came to 8.7%. Under setting [2], the AC50 was 29.1 µM [falling, partial curve].

Consider `CCOC(=O)N1CCN(S(=O)(=O)N2CCCC(C(=O)NCCCN3CCCCC3CC)C2)CC1` (stereo not drawn), for which the cell number change was -19.1%. Moreover, the AC50 under setting [1] is 6.51 µM [falling, partial curve, poor fit].

For the compound `CCOc1ccc(C(=O)Nc2nnc(SCC(=O)NCC3CCCO3)s2)cc1` (stereo not drawn), the cell number change was -34.1%. For the same compound, the AC50 under setting [1] is 32.6 µM [falling, single point]. The concentration at half-maximal activity (AC50) under setting [2] is 0.0231 µM [falling, full curve].

For `COc1ccc(NC(=O)CCC(=O)NCCO)cc1`, the cell number change is -16.7%. The AC50 under setting [2] is 29.1 µM [falling, single point].

As for `COc1ccc(CNC(=O)CC(C)CC2=NS(=O)(=O)c3ccccc3N2)cc1` (stereo not drawn), the cell number change was 8.98%. In addition, under setting [2], the AC50 was 1.64 µM [rising, full curve, poor fit].

On to `O=C(/C=C/c1ccc(Cl)cc1)NCCc1ccccc1`, for which the cell number change amounted to 6.26%. Also, the half-maximal activity concentration (AC50) under setting [1] was 0.366 µM [falling, partial curve, poor fit]. Also, under setting [2], the AC50 was 0.58 µM [falling, partial curve].

Consider `Cn1c(C(=O)N2CCCC(C(=O)O)C2)cc2sccc21` (stereo not drawn), for which the cell number change turned out to be 2.6%. For the same compound, the half-maximal activity concentration (AC50) under setting [1] was 0.0259 µM [falling, full curve, poor fit].

As for `CCOc1cc(/C=N\NC(=O)c2ccc(NC(=O)CC)cc2)ccc1OC(=O)c1ccccc1`, the cell number change is -20.7%. Also, the AC50 under setting [1] is 0.651 µM [falling, full curve, poor fit]. Besides, the AC50 under setting [2] is 23.1 µM [falling, single point].

With `O=S(=O)(NC1CCCCC1Oc1ccccc1)c1ccc(Cl)cc1` (stereo not drawn), the cell number change was -19.7%. In addition, the AC50 under setting [2] was 0.13 µM [falling, full curve].

As for `COc1ccc(CCn2ccc(O)c(Cc3c(F)cccc3Cl)c2=O)cc1OC`, the cell number change is -65.2%. For the same compound, under setting [1], the concentration at half-maximal activity (AC50) is 7.08 µM [falling, partial curve]. Under setting [2], the concentration at half-maximal activity (AC50) is 2.82 µM [falling, full curve].

Turning to `NC(=O)c1ccc(NC(=O)COC(=O)CCCOc2ccccc2)cc1`, the cell number change amounted to 14.5%.

`CCOc1ccc(Cl)cc1S(=O)(=O)N1CCC(C(=O)NCc2ccccn2)CC1`: the cell number change is 11.3%. Moreover, the AC50 under setting [2] was 6.51 µM [rising, single point].

Consider `O=C(Nc1ccc(Cl)cc1)[C@@H]1[C@@H]2C(=O)N(c3ccc(Cl)cc3)C(=O)[C@@H]2[C@H]2C=CC=NN21`, for which the half-maximal activity concentration (AC50) is 0.651 µM [rising, partial curve] under setting [1] and 1.84 µM [rising, partial curve] under setting [2].

Consider `CSc1cccc(NC(=O)C2CCN(S(=O)(=O)c3cnc[nH]3)CC2)c1`, for which the cell number change is 7.96%.

Turning to `CC(=O)c1cccc(NC(=O)c2sc3nc4n(c(=O)c3c2C)CCCCC4)c1`, the cell number change is -43.6%. Besides, under setting [1], the half-maximal activity concentration (AC50) is 20.6 µM [falling, single point]. Also, the AC50 under setting [2] was 4.11 µM [falling, full curve].

Turning to `O=C(CS(=O)CC(=O)N(CC(=O)NC1CCCC1)C1CCCC1)Nc1ccc(F)cc1` (stereo not drawn), the cell number change was 3.37%.

`Cc1ccc(-c2noc(CN(C)C(=O)Nc3ccc(F)cc3)n2)cc1`: the cell number change is -9.23%. Moreover, the AC50 under setting [2] is 23.1 µM [falling, single point].

On to `C[C@@]12C(=O)Nc3cc(Cl)ccc3C(=O)N1[C@H]1c3cc(Br)ccc3OC[C@@H]1[C@@H]2c1ccccc1`, for which the cell number change stood at 7.66%. Under setting [2], the half-maximal activity concentration (AC50) is 2.91 µM [rising, partial curve].

Turning to `COc1ccccc1CNC(=O)c1cccc(S(=O)(=O)N(C)c2ccccc2)c1`, the cell number change is -7.77%.

Turning to `COc1ccc(-c2nc3c(n2O)CCc2c-3no[n+]2[O-])cc1`, the cell number change is -1.22%. Besides, the concentration at half-maximal activity (AC50) under setting [2] is 0.291 µM [falling, partial curve, poor fit].

As for `Cc1cccc(N2CCN(Cc3nc(-c4cccc(Cl)c4)oc3C)CC2)n1`, the cell number change is -37.7%. The AC50 under setting [1] was 13 µM [falling, partial curve]. For the same compound, under setting [2], the AC50 is 20.6 µM [falling, single point].

In the case of `O=C(CSc1ccc2ccccc2n1)N1CCC(c2noc3ccc(F)cc23)CC1`, the cell number change was -33.3%. Besides, the AC50 under setting [1] was 32.6 µM [falling, single point]. The half-maximal activity concentration (AC50) under setting [2] was 29.1 µM [falling, single point].

On to `COc1ccc(CCN2CC(C(=O)NCC(=O)Nc3ccc(F)c(F)c3)CC2=O)cc1OC` (stereo not drawn), for which the cell number change is -11%. For the same compound, the half-maximal activity concentration (AC50) under setting [2] is 0.092 µM [falling, full curve, poor fit].

`CCOc1cc(-c2noc(CCC(=O)N3CCOCC3)n2)ccc1OC`: the cell number change stood at 11.6%. In addition, under setting [2], the half-maximal activity concentration (AC50) was 29.1 µM [rising, single point].

For the compound `Cc1cc2ncc(S(=O)(=O)c3ccccc3)c(N)n2n1`, the cell number change is 3.13%.

In the case of `O=C(COc1ccc2ccccc2c1)Nc1ccc(Br)cc1C(=O)O`, the cell number change came out at 18.5%. Also, under setting [2], the concentration at half-maximal activity (AC50) was 0.82 µM [rising, full curve, poor fit].

Take `O=C(NCCOc1ccccc1)c1ccccc1SCC(=O)N1CCCC1`: the cell number change was -1.18%. In addition, under setting [2], the half-maximal activity concentration (AC50) is 2.91 µM [rising, single point].

Consider `O=C(NCCCCNC(=O)c1cccnc1Cl)c1cccnc1Cl`, for which the cell number change came to 26.5%. Also, the half-maximal activity concentration (AC50) under setting [2] is 1.3 µM [falling, full curve].

Regarding `COC(=O)C1=CN(c2ccc(F)cc2)C=C(C(=O)OC)C1c1cccc(Br)c1`, the cell number change turned out to be 53.7%. Under setting [1], the AC50 was 29.1 µM [rising, single point].

As to `O=C(O)CC/C(=N\Nc1ccc([N+](=O)[O-])cc1)c1ccccc1`, the cell number change was -58.1%. For the same compound, the AC50 under setting [1] is 29.1 µM [falling, single point]. Moreover, under setting [2], the concentration at half-maximal activity (AC50) is 29.1 µM [falling, single point].

On to `COc1ccc(C(=O)Nc2cccc(OC)c2)cc1`, for which the cell number change was -0.382%. Also, the half-maximal activity concentration (AC50) under setting [2] was 20.6 µM [falling, partial curve, poor fit].

Consider `Cc1ccc(CNCC(O)c2ccccc2)s1` (stereo not drawn), for which the cell number change is -17.1%.

On to `COc1ccc(C2CC(=O)C3=C(C2)Nc2ncnn2C3c2ccccc2C)c(OC)c1` (stereo not drawn), for which the cell number change came out at 21.8%. Besides, the AC50 under setting [1] is 2.06 µM [rising, full curve, poor fit].

On to `CCOC(=O)c1c(NC(=O)CSc2ncn[nH]2)sc(C)c1C`, for which the AC50 is 0.291 µM [rising, full curve] under setting [1] and 1.3 µM [rising, full curve] under setting [2].

For `COc1cc(O)c(C(CC(=O)N2CCCC(C)C2)c2ccc3c(c2)OCO3)c(OC)c1` (stereo not drawn), the cell number change is 47.1%. Under setting [1], the AC50 was 29.1 µM [rising, single point]. Further, the AC50 under setting [2] was 32.6 µM [rising, partial curve].

For the compound `Cc1cc(C)nc(SCc2nnc(SCC(=O)N3CCCc4ccccc43)n2C)n1`, the cell number change stood at 18.7%. The AC50 under setting [2] was 7.31 µM [rising, partial curve].

Take `COc1cc(C#N)ccc1OCC(=O)c1ccc2c(c1)OCCO2`: the cell number change was found to be 17.2%. Also, the AC50 under setting [1] is 2.06 µM [rising, single point].

Take `CCOc1ccccc1N1CCN(S(=O)(=O)c2cccs2)CC1`: the cell number change was -0.65%. Also, the AC50 under setting [2] was 29.1 µM [rising, single point].

For the compound `O=C(CNC(=O)Cc1ccccc1)NCC(=O)OCC(=O)c1cccc2ccccc12`, the cell number change is -12.5%. The AC50 under setting [1] was 6.51 µM [falling, single point]. The AC50 under setting [2] is 3.26 µM [falling, partial curve, poor fit].

Consider `COc1ccc(-c2noc(CNC(=O)CCCN3C(=O)[C@H]4CC=CC[C@H]4C3=O)n2)cc1`, for which the cell number change was -51.3%. Further, the half-maximal activity concentration (AC50) under setting [1] is 29.1 µM [falling, single point]. Moreover, the AC50 under setting [2] was 29.1 µM [falling, single point].

With `O=c1c2ccccc2nnn1Cc1ccc(Br)cc1`, the cell number change turned out to be 15%.

On to `O=C(NCc1ccc(F)cc1)C(c1ccccc1)N(C(=O)c1csnn1)c1ccccc1` (stereo not drawn), for which the cell number change was determined as 10.7%. Also, under setting [2], the AC50 is 29.1 µM [rising, single point].

On to `CCOc1ccc(-c2cc(C(=O)O)c3ccccc3n2)cc1`, for which the cell number change is -5.6%.

`S=C(NC1CCCCC1)N1CCN(C2CCCCC2)CC1`: the cell number change is -15.7%. For the same compound, the concentration at half-maximal activity (AC50) under setting [2] is 6.51 µM [falling, single point].

Broadly, the AC50 is the concentration at which the activity in the assay is half-maximal. A low value points to activity at low concentration.

Values taken from PubChem BioAssay AID2685 (National Center for Advancing Translational Sciences (NCATS), 2010).
